Results as given in publication PMC5517495, “Candidate SNP Markers of Familial and Sporadic Alzheimer's Diseases Are Predicted by a Significant Change in the Affinity of TATA-Binding Protein for Human Gene Promoters”.
The exact form of at least one protein or probe is not confirmed. At least one verdict rests on a figure or table, not on a statement of the authors.

Amino acid sequences for entries named in this document (tags omitted).
UniProt P20226, whole entry: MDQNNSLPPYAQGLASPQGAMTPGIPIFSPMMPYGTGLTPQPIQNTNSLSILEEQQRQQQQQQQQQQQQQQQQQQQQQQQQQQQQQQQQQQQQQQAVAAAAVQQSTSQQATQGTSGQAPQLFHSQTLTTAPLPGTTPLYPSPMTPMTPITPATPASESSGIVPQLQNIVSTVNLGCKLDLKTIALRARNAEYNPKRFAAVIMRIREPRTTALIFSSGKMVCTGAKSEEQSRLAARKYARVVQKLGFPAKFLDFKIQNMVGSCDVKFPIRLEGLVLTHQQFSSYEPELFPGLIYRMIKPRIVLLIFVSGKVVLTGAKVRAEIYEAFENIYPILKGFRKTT

Target: TATA-binding protein (TBP) (human) (UniProt P20226)
Experiment: EMSA
Conditions: 0.3 nM TBP titrated with ODN, value only in figure; EMSA: 20 mM HEPES-KOH pH 7.6, 5 mM MgCl2, 70 mM KCl, 1 mM EDTA, 100 ug/ml BSA, 0.01% NP-40 (printed 0.0.1%), 5% glycerol, 25 C; stopped-flow buffer not stated; recombinant protein; residues 1-339; label: 32P on both strands

CGCGGCGCTCTATATAAGTGGGCAGT (double strand) [TPI1 promoter rs1800202 ancestral allele (EMSA)]
binding result: binds
